From US4826958A (Abbott Laboratories, priority 1988, dated 1989) come the findings set out here.

The nature of the series: general procedure: solution-phase peptide synthesis. Conditions: coupling step.

On to “Boc-(α-Naphthyl)Ala-Ala-Sta amide of methioninol”, for which the step yield worked out at 76% yield. With “Boc-(α-Naphthyl)Ala-Ala-Sta-amide of isoleucinol” the figure was 81% yield.
